Our source for the binding values is patent publication US20050118601A1, “Enhancer sequence of the 5-aminolevulinic acid synthase gene” (priority 2002, published 2005).

These are yes or no findings as the source states them, for the method shown. Some entries that bind do so weakly or less than the wild type.

Test [1] has as its target T1, human 9-cis retinoic acid receptor RXRα (human, UniProt P19793 1-462).
T1 construct: also called human RXRα
T1 sequence (looked up): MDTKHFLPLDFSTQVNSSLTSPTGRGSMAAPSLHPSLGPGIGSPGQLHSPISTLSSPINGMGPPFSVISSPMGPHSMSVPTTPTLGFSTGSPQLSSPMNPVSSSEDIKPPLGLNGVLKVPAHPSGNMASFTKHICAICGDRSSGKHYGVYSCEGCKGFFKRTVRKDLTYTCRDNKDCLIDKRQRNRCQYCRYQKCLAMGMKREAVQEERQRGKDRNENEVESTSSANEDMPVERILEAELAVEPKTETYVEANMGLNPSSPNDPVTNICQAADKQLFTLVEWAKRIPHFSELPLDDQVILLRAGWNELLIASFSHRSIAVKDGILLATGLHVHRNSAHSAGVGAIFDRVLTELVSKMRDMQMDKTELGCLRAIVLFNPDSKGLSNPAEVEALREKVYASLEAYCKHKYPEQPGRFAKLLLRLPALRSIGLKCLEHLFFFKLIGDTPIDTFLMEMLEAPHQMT
The experiment in a line: electrophoretic mobility shift, hA174 probe; no complex with single receptors (FIG. 19A). For orientation: In EMSA bound probe runs differently from free probe, usually more slowly.

For test [2], the target named is T1, human 9-cis retinoic acid receptor RXRα. The experiment in a line: electrophoretic mobility shift, hA240 probe; no complex with single receptors (FIG. 19B). An excerpt:
FIG. 19 depicts the results of an electrophoretic mobility shift assay, assaying the ability of human PXR and human CAR to bind to the hA174 and hA240 elements. Binding of these nuclear receptors happens in a heterodimeric state with the human 9-cis retinoic acid receptor RXRα. From expression plasmids encoding human RXRα, […] or CAR, receptor protein was made in vitro using the TNT reticulocyte lysate coupled transcription/translation system (Promega Corp.).
FIG. 19B: Instead of the hA174 fragment, wild-type or DR4-mutant hA240 fragment was radiolabeled and used as probe. Lanes 1-4: Wildtype hA240 was incubated with no receptor (mock transcription/translation) or with RXRα, PXR or CAR alone. No complex is observed using single receptors. Lanes 5 and 7: Wild-type hA240 was incubated with RXRα and PXR or RXRα and CAR, upon which complex formation between radiolabeled probe and protein is observed. Lanes 6 and 8: Same conditions as in lanes 5 and 7, but instead of wild-type probe, radiolabeled hA240DR4(2) mutant was used. No complex is formed.

B1: human constitutive androstane receptor (CAR) (receptor, UniProt Q14994-2 1-348, looked up)
chain: MASREDELRNCVVCGDQATGYHFNALTCEGCKGFFRRTVSKSIGPTCPFAGSCEVSKTQRRHCPACRLQKCLDAGMRKDMILSAEALALRRAKQAQRRAQQTPVQLSKEQEELIRTLLGAHTRHMGTMFEQFVQFRPPAHLFIHHQPLPTLAPVLPLVTHFADINTFMVLQVIKFTKDLPVFRSLPIEDQISLLKGAAVEICHIVLNTTFCLQTQNFLCGPLRYTIEDGARVGFQVEFLELLFHFHGTLRKLQLQEPEYVLLAAMALFSPDRPGVTQRDEIDQLQEEMALTLQSYIKGQQRRPRDRFLYAKLLGLLAELRSINEAYGYQIQHIQGLSAMMPLLQEICS
On to B1, for which the binding entry in test [1] and in test [2] was “binds” each time.
